Protein sequences, listed by entry. Tags and fused reporters are not part of them. Residues count along the entry.
UniProt Q9BXM7, residues 78-581: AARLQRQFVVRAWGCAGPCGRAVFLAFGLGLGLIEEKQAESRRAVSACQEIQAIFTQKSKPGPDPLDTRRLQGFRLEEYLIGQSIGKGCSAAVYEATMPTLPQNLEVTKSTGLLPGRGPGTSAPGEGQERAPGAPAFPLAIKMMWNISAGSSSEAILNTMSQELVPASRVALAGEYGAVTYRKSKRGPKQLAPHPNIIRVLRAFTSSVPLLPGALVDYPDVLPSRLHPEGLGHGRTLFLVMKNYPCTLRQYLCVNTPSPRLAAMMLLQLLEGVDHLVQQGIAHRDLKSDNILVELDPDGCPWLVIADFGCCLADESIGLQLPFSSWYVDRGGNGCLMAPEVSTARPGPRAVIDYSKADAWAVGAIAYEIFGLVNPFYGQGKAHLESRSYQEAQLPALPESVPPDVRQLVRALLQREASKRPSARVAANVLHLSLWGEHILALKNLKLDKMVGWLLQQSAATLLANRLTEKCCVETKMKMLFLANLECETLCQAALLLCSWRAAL

In PMC7807703:

Target: T1, STOML2-Flag (Stomatin-like protein 2 with a Flag tag) (human) (UniProt Q9UJZ1)
T1 sequence: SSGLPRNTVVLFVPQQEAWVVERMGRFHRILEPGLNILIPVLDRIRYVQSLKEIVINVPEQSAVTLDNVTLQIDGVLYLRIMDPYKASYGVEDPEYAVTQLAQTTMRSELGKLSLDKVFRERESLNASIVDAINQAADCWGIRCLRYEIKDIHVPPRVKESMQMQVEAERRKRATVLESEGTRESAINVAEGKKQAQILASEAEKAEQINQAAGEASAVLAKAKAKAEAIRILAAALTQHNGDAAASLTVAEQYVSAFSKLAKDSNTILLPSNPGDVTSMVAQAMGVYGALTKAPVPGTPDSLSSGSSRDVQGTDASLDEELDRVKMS
Test: affinity purification with mass spectrometry; SMMC-7721 cells transfected with STOML2-Flag (control: pENTER), treated with CCCP (10 uM), lysed in RIPA buffer; Flag antibody and protein A/G agarose beads; SDS-PAGE, silver stain, specific bands analysed by MALDI TOF

binding: binds
Substance: PTEN-induced putative kinase 1 (PINK1) (from UniProt Q9BXM7 78-581)

No constants are given. Whether binding was seen depends on the method and setting. In cells and extracts the contact can be indirect. A yes stands for co-enrichment or nearness to the bait. Other partners may have been found. Where a sequence is shown, tags or fusion partners need not be part of it.
